Test results from PubChem BioAssay AID248 (DTP/NCI, 2004).
The list does not hold the whole screen: it is rich in T/C values a quarter to a half above the control, in often repeated tests (any T/C) and in doses without a T/C. Further doses and runs are listed elsewhere. T/C: endpoint of the treated group in % of that of the vehicle group. Some entries give survivors of the animals treated and no T/C: the source files T/C as zero there, which appears to mark a toxic dose or a test without result, not a measured value. Some survivor counts are full or nearly so, which does not show that the dose was tolerated: survival well below the control is almost never listed, so the zero probably covers shortened survival too. Survivors were counted at the toxicity check, usually on the fifth day, unless a day is given; later deaths do not show. Schedule codes are those of the source, taken here to give the interval after Q, in days (D) or hours (H), and the number of doses after X. Some doses were run more than once; their values stand side by side, smallest first. Where survival is the endpoint, the PubChem record calls one and a half times the control and up active, and a quarter to a half above the control has no call in these data; cut-offs in other NCI protocols can differ.

Test system: L1210 leukemia ip in BDF1 mice, survival T/C
Assay: NCI In Vivo Anticancer Drug Screen. Data for tumor model L1210 Leukemia (intraperitoneal) in B6D2F1 (BDF1) mice
Details: T/C endpoint: mean survival time, higher T/C = longer survival
[1] = dose: 100.0 mg/kg/injection, schedule: Q01DX009 (ip), vehicle: saline
[2] = dose: 300.0 mg/kg/injection, schedule: Q01DX001 (ip), vehicle: saline
[3] = dose: 100.0 mg/kg/injection, schedule: Q04DX002 (ip), vehicle: saline with Tween-80
[4] = dose: 400.0 mg/kg/injection, schedule: Q01DX009 (ip), vehicle: saline with Tween-80
[5] = dose: 400.0 mg/kg/injection, schedule: Q04DX003 (ip), vehicle: saline with Tween-80
[6] = dose: 200.0 mg/kg/injection, schedule: Q04DX003 (ip), vehicle: saline with Tween-80

CC([NH-])C(=O)O.CC([NH-])C(=O)O.[Ni+2] (stereo unspecified)
survivor count (dose: 25.0 mg/kg/injection, schedule: Q01DX009 (ip), vehicle: saline): 6 of 6 | survivor count (dose: 50.0 mg/kg/injection, schedule: Q01DX009 (ip), vehicle: saline): 1 of 6 | survivor count [1]: 0 of 6 | survivor count (dose: 100.0 mg/kg/injection, schedule: Q04DX003 (ip), vehicle: saline): 1 of 6 | survivor count (dose: 200.0 mg/kg/injection, schedule: Q04DX003 (ip), vehicle: saline): 0 of 6 | survivor count (dose: 400.0 mg/kg/injection, schedule: Q04DX003 (ip), vehicle: saline): 1 of 6

CCN(CC)CC(=O)NCC(CCCN1CCCCC1)(c1cccc2ccccc12)C(C)C (stereo unspecified)
survivor count [1]: 0 of 6 | survivor count (dose: 200.0 mg/kg/injection, schedule: Q01DX009 (ip), vehicle: saline): 0 of 6 | survivor count (dose: 400.0 mg/kg/injection, schedule: Q01DX009 (ip), vehicle: saline): 0 of 6

N=C(N)SCc1ccc(Br)cc1
survivor count (dose: 400.0 mg/kg/injection, schedule: Q01DX001 (ip), vehicle: saline): 1 of 6

C(=N\Nc1ccccc1)/c1cccc[n+]1Cc1ccccc1
survivor count (dose: 300.0 mg/kg/injection, schedule: Q01DX001 (ip), vehicle: other): 3 of 6

CN(C)CCCCCCN(C)C (tested in a mixture with another compound)
survivor count (dose: 75.0 mg/kg/injection, schedule: Q01DX001 (ip), vehicle: saline): 1 of 6 | survivor count (dose: 150.0 mg/kg/injection, schedule: Q01DX001 (ip), vehicle: saline): 0 of 6 | survivor count [2]: 0 of 6

CC(C)(COC(=O)COc1ccc(Cl)cc1Cl)[N+](=O)[O-]
survivor count (dose: 400.0 mg/kg/injection, schedule: Q01DX009 (ip), vehicle: Klucel (hydroxypropylcellulose) (HPC)): 6 of 6

CSC1=NCCCC1
survivor count [2]: 2 of 6

CCCCCCCCCCCCCCCCCCNC(=O)Nc1ccc(C(C)C)cc1
survivor count (dose: 400.0 mg/kg/injection, schedule: Q04DX003 (ip), vehicle: Klucel (hydroxypropylcellulose) (HPC)): 6 of 6

C1CCC(NC2=NCCO2)CC1
survivor count [3]: 3 of 3

OC(CC(O)(C(F)(F)F)C(F)(F)F)c1cccc(Cl)c1 (stereo unspecified)
survivor count (dose: 200.0 mg/kg/injection, schedule: Q01DX009 (ip), vehicle: gum acacia): 3 of 6 | survivor count (dose: 400.0 mg/kg/injection, schedule: Q04DX003 (ip), vehicle: gum acacia): 2 of 6

CC/C=C(\CCC)C1(CC)C(=O)NC(=O)NC1=O
survivor count [2]: 0 of 6

N=C(N)SC12CC3CC(CC(C3)C1)C2
survivor count (dose: 100.0 mg/kg/injection, schedule: Q04DX002 (ip), vehicle: Klucel (hydroxypropylcellulose) (HPC)): 0 of 3 | survivor count (dose: 200.0 mg/kg/injection, schedule: Q04DX002 (ip), vehicle: Klucel (hydroxypropylcellulose) (HPC)): 0 of 3 | survivor count (dose: 400.0 mg/kg/injection, schedule: Q04DX002 (ip), vehicle: Klucel (hydroxypropylcellulose) (HPC)): 0 of 3

CSc1ccc(OC(=O)Nc2cc(Cl)ccc2C)cc1
survivor count [4]: 0 of 3 and 3 of 6 | survivor count [5]: 0 of 6

CC(=O)[O][Hg][c]1cc(-c2ccc(N=Nc3c(S(=O)(=O)O)cc4cccc(N)c4c3O)cc2)ccc1N=Nc1c(S(=O)(=O)O)cc2cccc(N)c2c1O
survivor count (dose: 100.0 mg/kg/injection, schedule: Q04DX003 (ip), vehicle: saline with Tween-80): 0 of 6 | survivor count [6]: 0 of 6 | survivor count [5]: 0 of 6

COC(=O)c1[nH]cnc1/N=N/N(C)C1CCCCC1
survivor count (dose: 400.0 mg/kg/injection, schedule: Q01DX001 (ip), vehicle: carboxymethylcellulose (CMC)): 2 of 4

CC1CCC=C2C(=O)C3OC3C(C(C)(C)O)C21C (stereo unspecified)
survivor count [6]: 6 of 6

CN(N=O)P(=O)(Nc1ccccc1)Nc1ccccc1
T/C [1]: 136 % of control | survivor count (dose: 200.0 mg/kg/injection, schedule: Q04DX003 (ip), vehicle: saline sonified): 5 of 6 | survivor count (dose: 400.0 mg/kg/injection, schedule: Q04DX003 (ip), vehicle: saline sonified): 0 of 6

CCCCCCCC/C=C\CCCCCCCCSC#N
survivor count [3]: 3 of 3 | survivor count [4]: 3 of 3
